Test results as given in PubChem BioAssay AID493014 (National Center for Advancing Translational Sciences (NCATS), 2011).
The other results are listed elsewhere or left out. These are further read-outs of the screen, such as a control signal, another cell line or another target. No call is given for them. Most of these compounds were active or inconclusive in the main read-out, so they are no random draw. Words in brackets tell the shape of the fitted curve; partial curves, single points and poor fits give uncertain potencies.

Experiment: qHTS Assay to Find Inhibitors of Chronic Active B-Cell Receptor Signaling
Conditions: ABC-DLBCL IkBa-CBG/CBR reporter, luminescence ratio (green luciferase fused to IkBa over red control in TMD8 lymphoma cells), 4 h
In short: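 Doxycycline induced both beetle luciferases in TMD8 lymphoma cells; IKK-driven degradation limits the IkappaBalpha-fused green signal, while red luminescence normalises for cell number and nonspecific effects. Compounds tested up to 46 uM, 4 hrs.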

[1] = measured here: CBR red luminescence, cell number
[2] = measured here: IkBa-CBG green luminescence

| SMILES | AC50 [1] | AC50 [2] |
| --- | --- | --- |
| COc1cc(CO)cc(Br)c1OCc1cccnc1 | 11.2 µM [rising, partial curve, poor fit] | – |
| CC1CCCCC1NC(=O)COc1ccccc1C#N (stereo not drawn) | 29.1 µM [rising, single point] | – |
| COc1ccc2[nH]c3c(NCc4ccco4)ncnc3c2c1 | 3.16 µM [rising, partial curve, poor fit] | – |
| Cc1cc(N2CCN(C(=O)c3ccco3)CC2)n2ncc(-c3ccccc3)c2n1 | 17.8 µM [falling, single point] | – |
| COc1ccc(CN(CCC(c2ccc(F)cc2)C2CCOC(C)(C)C2)C(=O)c2ccco2)cc1 (stereo not drawn) | 29.1 µM [falling, single point] | 25.9 µM [rising, partial curve, poor fit] |
| CCOC(=O)c1sc(Nc2nc3c(OC)cccc3s2)cc1C | 7.31 µM [falling, partial curve, poor fit] | – |
| Cc1cc(C)cc(OCC(=O)Nc2ccccc2C(=O)NCc2ccco2)c1 | 23.1 µM [falling, single point] | – |
| Cc1ccc(-c2noc(CCC(=O)Nc3ccccc3C)n2)cc1 | 20 µM [rising, partial curve, poor fit] | – |
| N#CCCn1cc(/C=N/O)c(-c2ccc(-c3ccccc3)cc2)n1 | 3.16 µM [rising, partial curve, poor fit] | – |
| CCN(CC)c1ccc2cc(-c3nc4ccccc4n3C)c(=O)oc2c1 | 8.91 µM [rising, partial curve] | 2.24 µM [falling, full curve] |
| Cc1cc(C(=O)COc2ccc(C#N)cc2)c(C)n1C1CC1 | 18.4 µM [rising, partial curve] | – |
| NC(=O)C1CCN(CC(=O)Nc2ccccc2Sc2ccc(Cl)cc2)CC1 | 29.1 µM [falling, single point] | – |
| O=C(CSc1ncccn1)N1CCN(C(c2ccccc2)c2ccccc2)CC1 | 0.461 µM [falling, partial curve, poor fit] | – |
| COc1ccc(S(=O)(=O)NCCc2nnc3ccc(SCC(=O)Nc4cc(C)on4)nn23)cc1 | 7.94 µM [rising, partial curve, poor fit] | – |
| CS(=O)(=O)N1N=C(c2ccccc2)CC1c1ccc2c(c1)OCO2 (stereo not drawn) | 9.2 µM [rising, partial curve] | – |
| Cc1nc(SCC(=O)NCC2CCCO2)c2cc(-c3ccccc3)sc2n1 (stereo not drawn) | 1.3 µM [rising, full curve, poor fit] | – |
| O=C(N/N=C/c1ccncc1)c1ccc(COc2cccc3cccnc23)cc1 | 6.31 µM [falling, partial curve, poor fit] | – |
| Cc1ccc(S(=O)(=O)/C(C#N)=C/c2c(N3CC(C)OC(C)C3)nc3ccccn3c2=O)cc1 (stereo not drawn) | 8.91 µM [falling, partial curve, poor fit] | 11.2 µM [rising, partial curve, poor fit] |
| COc1ccc(S(=O)(=O)NCC(c2ccco2)S(=O)(=O)c2ccc(C)cc2)cc1C (stereo not drawn) | 20 µM [falling, partial curve, poor fit] | – |
| Cc1ccc(S(=O)(=O)CCc2nc3ccccc3s2)cc1C | 16.4 µM [rising, partial curve, poor fit] | – |
| CCOc1cc(NC(=O)Nc2ccc(F)cc2)c(OCC)cc1NC(=O)CC | 35.5 µM [rising, partial curve, poor fit] | – |

Single entries from the entries so far:
Cc1nc(SCC(=O)NCC2CCCO2)c2cc(-c3ccccc3)sc2n1 (stereo not drawn) – AC50 [1]: 1.3 µM [rising, full curve, poor fit]
Cc1ccc(S(=O)(=O)CCc2nc3ccccc3s2)cc1C – AC50 [1]: 16.4 µM [rising, partial curve, poor fit]
Cc1cc(C)cc(OCC(=O)Nc2ccccc2C(=O)NCc2ccco2)c1 – AC50 [1]: 23.1 µM [falling, single point]

Going on with the list:

| SMILES | AC50 [1] | AC50 [2] |
| --- | --- | --- |
| Cc1ccc2c(c1)-c1c(cnn1CC(=O)Nc1ccccc1N1CCN(C)CC1)CO2 | 16.4 µM [falling, partial curve, poor fit] | – |
| COc1ccc(NC(=O)c2sc(SCc3ccccc3)nc2N)cc1 | 23.1 µM [falling, partial curve, poor fit] | – |
| CCC(Oc1ccccc1)C(=O)Nc1cc(C(F)(F)F)ccc1N1CCOCC1 (stereo not drawn) | 3.66 µM [rising, single point] | – |
| CC(C)OCCCN1C=C2C(=O)C(C)(OC(=O)CCc3ccccc3)C(=O)C=C2C=C1c1ccc(C#N)cc1 (stereo not drawn) | 3.16 µM [falling, single point] | – |
| O=C(NC1CCSc2ccccc21)c1ccccc1Br (stereo not drawn) | 11.2 µM [falling, single point] | – |
| Cc1ccc(NC(=O)CNS(=O)(=O)c2ccc(F)cc2)cc1C | 1.12 µM [rising, partial curve, poor fit] | – |
| Cc1ccc2n(n1)c(=O)c(Cc1ccccc1)c([O-])[n+]2-c1ccccc1 | 9.2 µM [rising, partial curve] | – |
| COC(=O)c1ccccc1NC(=O)c1cc(-c2ccc(C)cc2)on1 | 16.4 µM [falling, single point] | – |
| Clc1ccc(CCNc2ncnc3nc[nH]c23)cc1 | 2.31 µM [falling, full curve, poor fit] | – |
| N/C(=N\OC(=O)Cc1ccccc1)c1cccnc1 | 6.31 µM [falling, single point] | – |
| O=C(CSc1ccc2ccccc2c1)Nc1nc2ccccc2[nH]1 | 9.2 µM [rising, partial curve] | 4.11 µM [falling, single point] |
| COc1cccc2[nH]c3c(=O)n(CCCN4CCOCC4)cnc3c12 | 7.94 µM [falling, partial curve, poor fit] | – |
| O=C(NCC(c1ccc(F)cc1)N1CCOCC1)c1ccc(OCc2ccccc2)cc1 (stereo not drawn) | 29.1 µM [falling, single point] | – |
| COc1ccc(-n2cnc3sc(-c4ccccc4)cc3c2=O)cc1 | 0.316 µM [rising, full curve, poor fit] | – |
| COc1cccc(NC(=O)COc2ncnc3sc(C)c(C)c23)c1 | 18.4 µM [falling, single point] | – |
| Cc1cccn2c(=O)c(/C=C(\C#N)C(=O)NCc3ccco3)c(N3CCCC(C)C3)nc12 (stereo not drawn) | 29.1 µM [falling, single point] | – |
| CCN(CC)C(=O)COc1cc(C)cc2oc(=O)cc(-c3ccccc3)c12 | 5.01 µM [rising, full curve, poor fit] | – |
| O=C(Nc1ccc(NC(=O)c2ccco2)nc1)c1cccnc1 | 9.2 µM [falling, partial curve] | – |
| Cc1nc2ccccc2c(=O)n1-c1cccc(NS(=O)(=O)c2ccccc2)c1 | 29.1 µM [rising, single point] | – |
| CC(CC1C(C#N)=C(N)OC2=C1C(=O)CCC2)c1ccccc1 (stereo not drawn) | 20.6 µM [falling, single point] | – |
| CC(C)c1nnc(NC(=O)c2sc3ccccc3c2Cl)s1 | 8.91 µM [falling, partial curve, poor fit] | – |

| SMILES | AC50 [1] | AC50 [2] |
| --- | --- | --- |
| CC(=O)Nc1sc(N/N=C/c2ccc(O)cc2)nc1-c1ccc(C)cc1 | 0.708 µM [falling, full curve, poor fit] | 5.62 µM [rising, partial curve, poor fit] |
| N/C(=N\OC(=O)Cc1ccccc1)c1ccccc1Cl | 31.6 µM [rising, single point] | – |
| COc1ccccc1C(=O)NC(=O)COC(=O)C1CCC1 | 1.64 µM [rising, full curve] | – |
| O=C(CSc1nc2c(c(=O)n1-c1ccccc1)SCC2)NCC1CCCO1 (stereo not drawn) | 35.5 µM [rising, single point] | – |
| CC(=O)c1c(C)[nH]c(C(=O)OCC(=O)c2ccc3c(c2)NC(=O)CO3)c1C | 5.8 µM [rising, full curve] | – |
| O=C(Nc1ccc(-c2nc3ccc(NC(=O)c4cccs4)cc3[nH]2)cc1)c1cccs1 | 20.6 µM [rising, partial curve] | – |
| Cc1cccc(-n2nnc(C(=O)NCc3ccccn3)c2N)c1 | 20.6 µM [falling, single point] | – |
| O=C(CSc1ncnc2nc[nH]c12)c1ccccc1 | 18.4 µM [falling, single point] | – |
| O=C(Nc1ccc(F)cc1)c1ccc(-n2cnnc2)cc1 | 22.4 µM [falling, single point] | – |
| Cc1ccc(NC(=O)CN2CCCC2c2cccn2C)cc1C (stereo not drawn) | 20.6 µM [falling, single point] | – |
| CCC(CC)NC(=O)COC(=O)c1ccc(OCc2ccc(C(C)=O)cc2OC)c(OC)c1 | 29.1 µM [rising, single point] | – |
| Cc1ccc(-c2cn3cccnc3n2)cc1NC(=O)c1ccc(Br)o1 | 8.2 µM [rising, partial curve, poor fit] | – |
| COC(=O)c1cc(NC(=O)Nc2cccc(Cl)c2)ccc1Cl | 14.1 µM [falling, single point] | – |
| CC(=O)COC(=O)C1=NN(c2ccccc2)C(=O)CC1 | 1.41 µM [rising, partial curve, poor fit] | – |
| C=CCSc1ncnc2c1oc1nc3c(cc12)COC(C)(C)C3 | 6.31 µM [rising, single point] | – |
| COC(=O)c1ccc(CSc2nc3c(cnn3-c3ccccc3)c(=O)[nH]2)o1 | 11.6 µM [rising, partial curve] | – |
| O=C(O)c1ccccc1-c1cn2cc(Cl)ccc2n1 | 22.4 µM [falling, single point] | – |
| CCOC(=O)N1CCN(C(=O)CCl)CC1 | 35.5 µM [falling, single point] | – |
| Cc1ccnc(NC(=S)NC(=O)/C=C/c2ccco2)c1 | 9.2 µM [falling, partial curve] | – |
| O=C(NCc1ccc(Cl)cc1)c1ccccc1Oc1ccccc1 | 35.5 µM [falling, single point] | – |
| Clc1c(-c2ccccc2)nnn1-c1ccccc1 | 3.66 µM [rising, partial curve, poor fit] | – |
